Measured values as given in the supplement of paper PMC5949888.
Most values lie at the floor of the assay. Slopes are relative: functional sequences can read slightly below zero.

Test system: Saccharomyces cerevisiae PS128 hsf1 delta, HSF1(1-493) fusion
Test: growth estimate (transactivation domain function in HSF1 fusion, heat-shock survival) (a.u. (slope of normalised read count over time)); higher = stronger growth at 37°C, i.e. more transactivation activity
Details: library: random library

| Substance | growth estimate |
| --- | --- |
| ILTHQREHTNDSPSPFP | < -0.25 |
| ILTI | < -0.25 |
| ILTN | < -0.25 |
| ILTSLFLDLGRVIRVRI | < -0.25 |
| ILVKLMVVYSCNSNALERML | < -0.25 |
| ILVPFHRHAAAIPSAEHTMS | < -0.25 |
| ILWARCDRG | < -0.25 |
| ILYHDDGMV | < -0.25 |
| IMCGSARKYVGGGLCQYMPR | < -0.25 |
| IMHIKH | < -0.25 |
| IMRQLRLDALNVGVFGVSLP | < -0.25 |
| IMTAGGVKILGNG | < -0.25 |
| INDCSVARSPEAHMRLHKTS | < -0.25 |
| INFTKRSHIRERSLSVYQVS | < -0.25 |
| INHF | < -0.25 |
| INIAVPPHLAGVSLVTPLVP | < -0.25 |
| INL | < -0.25 |
| INLPSLEVAIA | < -0.25 |
| INPNARSSQWK | < -0.25 |
| INQFSGGLGW | < -0.25 |
| INQSRPNRVKPRTATDSHVC | < -0.25 |

| Substance | growth estimate |
| --- | --- |
| INRASSKMTQETHPFYQQYW | < -0.25 |
| INRPRRWY | < -0.25 |
| INSAQGTIS | < -0.25 |
| INSVCNDVFIWTAVMALHGR | < -0.25 |
| INTKGVRFTSVRQPAESTSS | < -0.25 |
| IPA | < -0.25 |
| IPASHSREGV | -0.246 |
| IPEDS | < -0.25 |
| IPFLAAIALNQFLEEVNPGP | < -0.25 |
| IPFPTSRVIPVRGGVYSNAC | < -0.25 |
| IPGDRRTLPCGVRGLVACGA | < -0.25 |
| IPGLYIVGKGVISRYNTIRP | < -0.25 |
| IPGTC | < -0.25 |
| IPHFEGVGLT | < -0.25 |
| IPHYVSDSIRGQCRSATYGI | < -0.25 |
| IPLALRVLNSSFGGTGEFRR | -0.241 |
| IPQKHGVSGL | < -0.25 |
| IPQRPARTSNTNSPADARFR | < -0.25 |
| IPQVVVVYIDHRKIRR | < -0.25 |
| IPR | < -0.25 |
| IPSYERRNLPPSSKFHLAVG | < -0.25 |

| Substance | growth estimate |
| --- | --- |
| IPTASSQSKVWPEVALLRCA | < -0.25 |
| IPTDVIN | < -0.25 |
| IPTQGKCSNYLTRAFPSAGR | < -0.25 |
| IPVRTSFRDGSPASIQASSA | < -0.25 |
| IQAQPGLP | < -0.25 |
| IQDRRMSSRRERTGLSS | < -0.25 |
| IQGPRSH | < -0.25 |
| IQGRTNRVLRHRAEIRHR | < -0.25 |
| IQHIYHLHTLRTRLEMCLIG | < -0.25 |
| IQITPSARKWCGPNLVFCIE | < -0.25 |
| IQLPRYQGMGLSLPRTHTYT | < -0.25 |
| IQLPVRTARAQKVKVYHASV | < -0.25 |
| IQLRNWRIGRIVAHLGSRSA | < -0.25 |
| IQNSSGLSSHDLTDCTEGCR | < -0.25 |
| IQRISRLSFSFRNDQYGGCI | < -0.25 |
| IQSRYRRVRH | < -0.25 |
| IQSYWSSGQ | < -0.25 |
| IQTMSTRAPSGETAQCQLLL | < -0.25 |
| IQTSRAHPYGNGLYDMWARY | < -0.25 |
| IRAPARMGPFLHQMKVNSRV | < -0.25 |
| IRAQMKIFHYTARVGTGVLS | < -0.25 |

| Substance | growth estimate |
| --- | --- |
| IRCAL | < -0.25 |
| IRCVLQKSSASVNGIRMLQS | < -0.25 |
| IRDVLLHGIALIFMRLENGV | < -0.25 |
| IRFLLVVYLAETESMRESEE | < -0.25 |
| IRFRRGE | < -0.25 |
| IRFRWVCEFGQK | < -0.25 |
| IRGDYSPGGECQI | < -0.25 |
| IRGGIKDYML | < -0.25 |
| IRGINVPALD | < -0.25 |
| IRGWEDRLSRVYVERPDAKA | < -0.25 |
| IRIA | < -0.25 |
| IRIEGSYRGTGST | < -0.25 |
| IRIEVLQLIHA | < -0.25 |
| IRIVSRMYAGHGTAACSRGR | < -0.25 |
| IRKLSMGAAEFL | < -0.25 |
| IRKTVRRPVCVASEPSPVGG | < -0.25 |
| IRLEN | < -0.25 |
| IRLHFHSFVSVM | < -0.25 |

Taken from above.
IRCVLQKSSASVNGIRMLQS | growth estimate: < -0.25
IRLHFHSFVSVM | growth estimate: < -0.25
IRKLSMGAAEFL | growth estimate: < -0.25
IRFRRGE | growth estimate: < -0.25
IRIEVLQLIHA | growth estimate: < -0.25
